Source: publication PMC11379908
No constants are given. Whether binding was seen depends on the method and setting. Binding seen in cells or lysates may run through a third protein. Some results given as binding are weak or reduced against the parent protein; the word gives no strength.

Chains of the proteins cited; added tags and fusions are not shown. Residues count along the entry.
UniProt Q62406: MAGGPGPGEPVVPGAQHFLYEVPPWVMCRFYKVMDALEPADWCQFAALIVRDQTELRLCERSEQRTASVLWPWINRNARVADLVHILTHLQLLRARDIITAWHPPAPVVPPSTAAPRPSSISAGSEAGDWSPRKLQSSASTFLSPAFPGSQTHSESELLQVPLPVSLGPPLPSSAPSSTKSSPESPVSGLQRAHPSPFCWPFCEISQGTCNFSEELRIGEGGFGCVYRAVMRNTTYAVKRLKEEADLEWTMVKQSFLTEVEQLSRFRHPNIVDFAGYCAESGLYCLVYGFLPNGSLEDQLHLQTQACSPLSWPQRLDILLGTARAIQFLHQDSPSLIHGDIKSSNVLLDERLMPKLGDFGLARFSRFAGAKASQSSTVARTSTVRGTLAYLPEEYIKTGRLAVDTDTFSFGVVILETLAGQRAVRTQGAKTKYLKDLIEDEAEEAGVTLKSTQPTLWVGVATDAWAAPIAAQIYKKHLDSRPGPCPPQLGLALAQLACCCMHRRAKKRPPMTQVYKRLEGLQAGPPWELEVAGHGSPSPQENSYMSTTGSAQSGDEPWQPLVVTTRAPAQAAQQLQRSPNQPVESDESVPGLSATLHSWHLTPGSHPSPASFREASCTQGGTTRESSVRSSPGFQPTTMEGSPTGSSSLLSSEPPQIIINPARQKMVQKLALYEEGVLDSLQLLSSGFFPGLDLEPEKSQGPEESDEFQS
UniProt P10923, residues 17-294: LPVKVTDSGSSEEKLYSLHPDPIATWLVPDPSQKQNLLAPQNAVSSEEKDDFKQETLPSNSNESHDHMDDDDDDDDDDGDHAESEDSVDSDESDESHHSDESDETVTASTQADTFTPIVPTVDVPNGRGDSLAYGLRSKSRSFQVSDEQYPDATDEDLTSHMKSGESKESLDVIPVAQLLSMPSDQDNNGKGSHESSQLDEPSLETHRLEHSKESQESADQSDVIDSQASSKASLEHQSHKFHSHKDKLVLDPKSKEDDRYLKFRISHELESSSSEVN

Tests used:
[1] = target: T1, TRAF6 (mouse (endogenous in primary EPCs)) (UniProt P70196); assay: co-IP; endogenous proteins in lysates (1 mg) of mouse EPCs treated with TNF-α (shNC or shOPN EPCs for IRAK1-TRAF6); 5 µg anti-IRAK1 or anti-TRAF6 on Protein G Dynabeads, 4 °C overnight; Western blot
T1 sequence: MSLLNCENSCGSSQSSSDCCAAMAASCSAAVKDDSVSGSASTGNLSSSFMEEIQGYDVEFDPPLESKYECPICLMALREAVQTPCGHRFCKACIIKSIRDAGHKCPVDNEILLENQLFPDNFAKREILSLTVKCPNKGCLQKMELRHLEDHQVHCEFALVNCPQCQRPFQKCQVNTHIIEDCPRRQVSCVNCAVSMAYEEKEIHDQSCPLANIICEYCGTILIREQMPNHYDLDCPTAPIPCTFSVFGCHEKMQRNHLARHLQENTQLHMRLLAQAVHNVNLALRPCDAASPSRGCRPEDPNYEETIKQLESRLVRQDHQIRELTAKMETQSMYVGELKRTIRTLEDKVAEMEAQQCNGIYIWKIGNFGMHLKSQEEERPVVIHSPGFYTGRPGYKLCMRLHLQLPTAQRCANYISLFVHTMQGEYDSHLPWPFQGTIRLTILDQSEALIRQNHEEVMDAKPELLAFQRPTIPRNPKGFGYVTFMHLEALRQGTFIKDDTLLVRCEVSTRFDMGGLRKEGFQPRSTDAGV

[2] = target: IRAK1 (mouse (endogenous in primary EPCs)) (UniProt Q62406); assay: co-IP; endogenous proteins in lysates of mouse EPCs under normal conditions (no TNF-α); anti-IRAK1 or anti-TRAF6 on Protein G Dynabeads, 4 °C overnight; Western blot
[3] = target: IRAK1 (mouse (endogenous in primary EPCs)) (UniProt Q62406); assay: co-IP; endogenous proteins in lysates (1 mg) of mouse EPCs treated with TNF-α (shNC or shOPN EPCs for IRAK1-TRAF6); 5 µg anti-IRAK1 or anti-TRAF6 on Protein G Dynabeads, 4 °C overnight; Western blot

Molecule	binding [1]	binding [2]	binding [3]
IRAK1 (from UniProt Q62406 1-710)	binds		
Osteopontin (from UniProt P10923 17-294)		no binding (condition: without TNF-α (normal conditions))	binds
TRAF6 (protein, UniProt P70196 1-530) MSLLNCENSCGSSQSSSDCCAAMAASCSAAVKDDSVSGSASTGNLSSSFMEEIQGYDVEFDPPLESKYECPICLMALREAVQTPCGHRFCKACIIKSIRDAGHKCPVDNEILLENQLFPDNFAKREILSLTVKCPNKGCLQKMELRHLEDHQVHCEFALVNCPQCQRPFQKCQVNTHIIEDCPRRQVSCVNCAVSMAYEEKEIHDQSCPLANIICEYCGTILIREQMPNHYDLDCPTAPIPCTFSVFGCHEKMQRNHLARHLQENTQLHMRLLAQAVHNVNLALRPCDAASPSRGCRPEDPNYEETIKQLESRLVRQDHQIRELTAKMETQSMYVGELKRTIRTLEDKVAEMEAQQCNGIYIWKIGNFGMHLKSQEEERPVVIHSPGFYTGRPGYKLCMRLHLQLPTAQRCANYISLFVHTMQGEYDSHLPWPFQGTIRLTILDQSEALIRQNHEEVMDAKPELLAFQRPTIPRNPKGFGYVTFMHLEALRQGTFIKDDTLLVRCEVSTRFDMGGLRKEGFQPRSTDAGV			binds
